The supplement of paper PMC8007513
± gives the standard deviation of the averaged measurements. This is one part of the list. Repeats are few or missing, and single values can be far off.

What follows are molecules tested on Saccharomyces cerevisiae BY4743 (assay: growth (OD600) with compound + IPBC relative to untreated control; higher = less growth inhibition). Details: compound concentration: 133 uM; IPBC concentration: 0.5 ug/ml; 20 h.
Experimental: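 NMCCC compounds (133 uM) combined with IPBC (0.5 ug/ml) against Saccharomyces cerevisiae BY4743 in YPD, 96-well plates. Growth was read as OD600 at 20 h and expressed as % of the untreated control. Single pass.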

| Compound | growth [%] |
| --- | --- |
| CN(C)S(=O)(=O)c1cccc(COc2ncnc3c(Cl)cc(Cl)cc23)c1 + CCCCNC(=O)OCC#CI [3-iodo-2-propynyl butylcarbamate (IPBC)] | 99.9 |
| CN(C)S(=O)(=O)c1cccc(CSc2ccc3c(c2)OCCCO3)c1 + CCCCNC(=O)OCC#CI [3-iodo-2-propynyl butylcarbamate (IPBC)] | 75.9 |
| CC(=O)c1c(C)[nH]c(C(=O)C(C)NCc2ccccc2CN2CCCC2)c1C (centres undefined) + CCCCNC(=O)OCC#CI [3-iodo-2-propynyl butylcarbamate (IPBC)] | 96 |
| Cc1sc(NC(=O)CSc2ncnc3ccccc23)c(C#N)c1C + CCCCNC(=O)OCC#CI [3-iodo-2-propynyl butylcarbamate (IPBC)] | 93.5 |
| Cc1nn(-c2ccccc2)c(C)c1NC(=O)Cn1cnnn1 + CCCCNC(=O)OCC#CI [3-iodo-2-propynyl butylcarbamate (IPBC)] | 93.2 |
| Cc1noc(C)c1CCC(=O)N1CCN(CC2CCCO2)CC1 (centres undefined) + CCCCNC(=O)OCC#CI [3-iodo-2-propynyl butylcarbamate (IPBC)] | 98.9 |
| CC(C)CCNC(=O)c1ccc(Cn2c(C(F)(F)F)nc3cccnc32)cc1 + CCCCNC(=O)OCC#CI [3-iodo-2-propynyl butylcarbamate (IPBC)] | 96.4 |
| O=C(c1ccco1)N1CCN(C(=O)c2cccnc2SC(F)F)CC1 + CCCCNC(=O)OCC#CI [3-iodo-2-propynyl butylcarbamate (IPBC)] | 106 |
| CC(=O)ON1C(C)(C)Cc2noc(N)c2C1(C)C + CCCCNC(=O)OCC#CI [3-iodo-2-propynyl butylcarbamate (IPBC)] | 86.6 |
| Cc1ccc(C(C)NC(=O)c2ccnn2C)c(C)c1 (centres undefined) + CCCCNC(=O)OCC#CI [3-iodo-2-propynyl butylcarbamate (IPBC)] | 86.2 |
| Cc1ccnc(NS(=O)(=O)c2ccc(NS(=O)(=O)Cc3ccccc3)cc2)n1 + CCCCNC(=O)OCC#CI [3-iodo-2-propynyl butylcarbamate (IPBC)] | 96.8 |
| Cc1noc(C)c1C(=O)OCC(=O)NCC1CCCO1 (centres undefined) + CCCCNC(=O)OCC#CI [3-iodo-2-propynyl butylcarbamate (IPBC)] | 89.8 |
| CCS(=O)(=O)c1ccccc1C(=O)OCC(=O)N1CCNC1=O + CCCCNC(=O)OCC#CI [3-iodo-2-propynyl butylcarbamate (IPBC)] | 106 |
| COc1ccccc1CNc1sc(S(C)(=O)=O)nc1S(=O)(=O)c1ccc(C)cc1 + CCCCNC(=O)OCC#CI [3-iodo-2-propynyl butylcarbamate (IPBC)] | 99.4 |
| Cc1ccc(C)c(OCC(=O)N2CCc3ccccc3C2)c1 + CCCCNC(=O)OCC#CI [3-iodo-2-propynyl butylcarbamate (IPBC)] | 92.1 |
| CC(=O)c1c(C)[nH]c(C(=O)N(Cc2nnc(-c3ccc(Cl)cc3)o2)C(C)C)c1C + CCCCNC(=O)OCC#CI [3-iodo-2-propynyl butylcarbamate (IPBC)] | 103 |
| Fc1ccc(-c2ccc(NCCc3cccs3)nn2)cc1 + CCCCNC(=O)OCC#CI [3-iodo-2-propynyl butylcarbamate (IPBC)] | 89.8 |
| CCOC(=O)Nc1cccc(C(=O)NCc2ccc(N3CCCC3=O)cc2)c1 + CCCCNC(=O)OCC#CI [3-iodo-2-propynyl butylcarbamate (IPBC)] | 105 |
| CC(C)c1cc(C(=O)N2CCN(c3ccccc3F)CC2)cs1 + CCCCNC(=O)OCC#CI [3-iodo-2-propynyl butylcarbamate (IPBC)] | 46 |
| CCN(CC)c1nc2sc(C(=O)OCc3nccs3)cc2s1 + CCCCNC(=O)OCC#CI [3-iodo-2-propynyl butylcarbamate (IPBC)] | 86.8 |

| Compound | growth [%] |
| --- | --- |
| CCCCN1\C(=N/[S](=O)(=O)C2=CC=CC=C12)SCC(=O)C3=CC=CC=C3 + CCCCNC(=O)OCC#CI [3-iodo-2-propynyl butylcarbamate (IPBC)] | 89.2 |
| CC(=O)C1=C(C)OC(=C1)CCC(=O)OCC/2=C/C(=O)N/3\C=C(Cl)/C=C\C3=N2 + CCCCNC(=O)OCC#CI [3-iodo-2-propynyl butylcarbamate (IPBC)] | 106 |
| CCCCN(C(=O)c1noc2c1CC(C)CC2)C1CCN(C(C)=O)CC1 (centres undefined) + CCCCNC(=O)OCC#CI [3-iodo-2-propynyl butylcarbamate (IPBC)] | 91 |
| COc1ccccc1C(=O)NCCc1nc2cc(NC(=O)CC(C)C)ccc2n1C + CCCCNC(=O)OCC#CI [3-iodo-2-propynyl butylcarbamate (IPBC)] | 103 |
| Cc1cc(C)n(CCNC(=O)C(=O)Nc2ccc3c(c2)nc(C(F)(F)F)n3C)n1 + CCCCNC(=O)OCC#CI [3-iodo-2-propynyl butylcarbamate (IPBC)] | 84.1 |
| CCN1\C=C(\C#N)C(=O)N(CC(=O)NC2=CC=C(C)C=C2Cl)C1=O + CCCCNC(=O)OCC#CI [3-iodo-2-propynyl butylcarbamate (IPBC)] | 111 |
| Cc1cccc(Nc2nnc(SCC(=O)c3ccc[nH]3)s2)c1 + CCCCNC(=O)OCC#CI [3-iodo-2-propynyl butylcarbamate (IPBC)] | 78.3 |
| CCN(C(=O)c1cc(OC)cc(OC)c1)c1nc2c(C)cccc2s1 + CCCCNC(=O)OCC#CI [3-iodo-2-propynyl butylcarbamate (IPBC)] | 104 |
| COc1ccc(-c2onc(C)c2C)cc1S(=O)(=O)N(C)C(C)CCc1ccco1 (centres undefined) + CCCCNC(=O)OCC#CI [3-iodo-2-propynyl butylcarbamate (IPBC)] | 99.1 |
| CC(=O)c1oc2ccccc2c1NC(=O)CSc1nc[nH]n1 + CCCCNC(=O)OCC#CI [3-iodo-2-propynyl butylcarbamate (IPBC)] | 106 |
| COc1ccccc1NC(=O)Nc1ccc2c(c1)C(=O)OC2 + CCCCNC(=O)OCC#CI [3-iodo-2-propynyl butylcarbamate (IPBC)] | 80.5 |
| Cc1nn(CC(C)C)c2sc(C(=O)OCC(=O)NC(=O)NCC(C)C)cc12 + CCCCNC(=O)OCC#CI [3-iodo-2-propynyl butylcarbamate (IPBC)] | 89.4 |
| COc1cc(OC)c(NC(=O)CCS(=O)(=O)c2ccc3c(c2)NC(=O)C(C)S3)cc1Cl (centres undefined) + CCCCNC(=O)OCC#CI [3-iodo-2-propynyl butylcarbamate (IPBC)] | 104 |
| Cc1cccc(NS(=O)(=O)c2cc(-c3onc(C)c3C)ccc2C)n1 + CCCCNC(=O)OCC#CI [3-iodo-2-propynyl butylcarbamate (IPBC)] | 95.8 |
| Cn1c(Cc2nnnn2Cc2ccc(Cl)cc2Cl)nnc1SCC(N)=O + CCCCNC(=O)OCC#CI [3-iodo-2-propynyl butylcarbamate (IPBC)] | 88.5 |
| CC(C)COC(=O)Nc1nnc(/C=C/c2ccccc2)s1 + CCCCNC(=O)OCC#CI [3-iodo-2-propynyl butylcarbamate (IPBC)] | 91.3 |
| Cc1c(SCCO)c(O)nc2cc3c(cc12)OCO3 + CCCCNC(=O)OCC#CI [3-iodo-2-propynyl butylcarbamate (IPBC)] | 89.9 ± 6.5 |
| CCC(C)NS(=O)(=O)c1ccc2c(c1)N(C)CCO2 (centres undefined) + CCCCNC(=O)OCC#CI [3-iodo-2-propynyl butylcarbamate (IPBC)] | 101 |
| CCc1ccc(N2C(=O)CN(S(C)(=O)=O)CC2(C)C(=O)NCc2ccccc2)cc1 (centres undefined) + CCCCNC(=O)OCC#CI [3-iodo-2-propynyl butylcarbamate (IPBC)] | 99.8 |
